According to patent publication US9167819B2, “Herbicidal 3-(sulfin-/sulfonimidoyl)-benzamides” (BAYER INTELLECTUAL PROPERTY GMBH, priority 2012, dated 2015):
Some of these results come from one statement about several compounds together.

Legend:
Format in all cases: in vivo
Echinochloa crus galli [1] = assay: Herbicidal pre-emergence effect against harmful plants (greenhouse pot test); conditions: application rate 320 g/ha, scored visually after 3 weeks vs untreated controls, 100% = plants have died
Veronica persica [2] = assay: Herbicidal post-emergence activity against harmful plants (greenhouse pot test); conditions: post-emergence (one-leaf stage), application rate 80 g/ha, scored visually after approximately 3 weeks vs untreated controls, 100% = plants have died
Matricaria inodora [3] = assay: as above; conditions: post-emergence (one-leaf stage), application rate 80 g/ha, scored visually after approximately 3 weeks vs untreated controls, 100% = plants have died
Abutilon theophrasti [4] = assay: as above; conditions: post-emergence (one-leaf stage), application rate 80 g/ha, scored visually after approximately 3 weeks vs untreated controls, 100% = plants have died
Veronica persica [5] = assay: Herbicidal pre-emergence effect against harmful plants (greenhouse pot test); conditions: application rate 320 g/ha, scored visually after 3 weeks vs untreated controls, 100% = plants have died
Stellaria media [6] = assay: as above; conditions: application rate 320 g/ha, scored visually after 3 weeks vs untreated controls, 100% = plants have died
Echinochloa crus galli [7] = assay: Herbicidal post-emergence activity against harmful plants (greenhouse pot test); conditions: post-emergence (one-leaf stage), application rate 80 g/ha, scored visually after approximately 3 weeks vs untreated controls, 100% = plants have died
Stellaria media [8] = assay: as above; conditions: post-emergence (one-leaf stage), application rate 80 g/ha, scored visually after approximately 3 weeks vs untreated controls, 100% = plants have died
Matricaria inodora [9] = assay: Herbicidal pre-emergence effect against harmful plants (greenhouse pot test); conditions: application rate 320 g/ha, scored visually after 3 weeks vs untreated controls, 100% = plants have died
Abutilon theophrasti [10] = assay: as above; conditions: application rate 320 g/ha, scored visually after 3 weeks vs untreated controls, 100% = plants have died
Amaranthus retroflexus = assay: as above; conditions: application rate 320 g/ha, scored visually after 3 weeks vs untreated controls, 100% = plants have died
Viola tricolor = assay: as above; conditions: application rate 320 g/ha, scored visually after 3 weeks vs untreated controls, 100% = plants have died
Setaria viridis [11] = assay: as above; conditions: application rate 320 g/ha, scored visually after 3 weeks vs untreated controls, 100% = plants have died
Cyperus serotinus = assay: as above; conditions: application rate 320 g/ha, scored visually after 3 weeks vs untreated controls, 100% = plants have died
Setaria viridis [12] = assay: Herbicidal post-emergence activity against harmful plants (greenhouse pot test); conditions: post-emergence (one-leaf stage), application rate 80 g/ha, scored visually after approximately 3 weeks vs untreated controls, 100% = plants have died

Measured: herbicidal activity in percent

Cc1c(C(=O)Nc2nnnn2C)ccc(C(F)(F)F)c1S(C)(=O)=NC#N (stereo not drawn) [1-138]
at least 80%: all assays above

Cc1c(C(=O)Nc2nnnn2C)ccc(C(F)(F)F)c1S(C)(=O)=NC(=O)C(F)(F)F (stereo not drawn) [1-270]
at least 80%: all assays above

COc1c(C(=O)Nc2nnnn2C)ccc(C(F)(F)F)c1S(C)(=N)=O (stereo not drawn) [1-028, 2-methoxy-3-(S-methylsulfonimidoyl)-N-(1-methyl-1H-tetrazol-5-yl)-4-(trifluoromethyl)benzamide]
at least 80%: all assays above
